These are yes or no findings as the source states them, for the method shown. Some entries that bind do so weakly or less than the wild type.

By UniProt entry, the sequences of proteins in these tests, tags left out. Residues count along the entry.
UniProt P42081, residues 24-247: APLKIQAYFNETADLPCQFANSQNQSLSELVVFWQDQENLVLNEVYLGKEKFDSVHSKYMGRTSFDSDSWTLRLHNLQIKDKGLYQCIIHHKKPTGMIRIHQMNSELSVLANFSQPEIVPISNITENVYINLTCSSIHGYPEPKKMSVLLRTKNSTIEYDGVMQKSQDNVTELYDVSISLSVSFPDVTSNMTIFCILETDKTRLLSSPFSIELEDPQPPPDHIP

The target in this test is mutated human CTLA4 having the L105M and G106S changes (human). As to the kind of experiment: binding to mutant CTLA4 (L105M, G106S).

Regarding “B7.2-IgG1 fusion protein (from UniProt P42081 24-247) (Fc fusion)”, the binding entry is recorded as “binds”.

These data come from patent publication US20050287136A1.
